Among the data in doi:10.1101/2023.02.03.527076 are binding values, retold here.

By UniProt entry, the sequences of proteins in these tests, tags left out.
UniProt Q9LK09: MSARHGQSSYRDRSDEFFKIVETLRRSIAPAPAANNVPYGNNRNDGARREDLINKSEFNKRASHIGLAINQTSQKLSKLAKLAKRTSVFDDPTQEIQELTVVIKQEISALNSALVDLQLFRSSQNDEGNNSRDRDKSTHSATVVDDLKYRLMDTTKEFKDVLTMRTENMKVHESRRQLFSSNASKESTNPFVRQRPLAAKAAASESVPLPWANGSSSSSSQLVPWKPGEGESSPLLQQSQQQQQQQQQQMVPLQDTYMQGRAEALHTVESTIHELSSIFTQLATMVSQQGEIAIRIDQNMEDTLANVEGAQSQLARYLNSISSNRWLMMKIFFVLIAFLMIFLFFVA
UniProt Q94CG2: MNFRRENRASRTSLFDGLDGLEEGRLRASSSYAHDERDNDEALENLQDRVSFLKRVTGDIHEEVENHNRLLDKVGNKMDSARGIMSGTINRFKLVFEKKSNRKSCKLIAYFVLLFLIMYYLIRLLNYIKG
UniProt Q9CA75: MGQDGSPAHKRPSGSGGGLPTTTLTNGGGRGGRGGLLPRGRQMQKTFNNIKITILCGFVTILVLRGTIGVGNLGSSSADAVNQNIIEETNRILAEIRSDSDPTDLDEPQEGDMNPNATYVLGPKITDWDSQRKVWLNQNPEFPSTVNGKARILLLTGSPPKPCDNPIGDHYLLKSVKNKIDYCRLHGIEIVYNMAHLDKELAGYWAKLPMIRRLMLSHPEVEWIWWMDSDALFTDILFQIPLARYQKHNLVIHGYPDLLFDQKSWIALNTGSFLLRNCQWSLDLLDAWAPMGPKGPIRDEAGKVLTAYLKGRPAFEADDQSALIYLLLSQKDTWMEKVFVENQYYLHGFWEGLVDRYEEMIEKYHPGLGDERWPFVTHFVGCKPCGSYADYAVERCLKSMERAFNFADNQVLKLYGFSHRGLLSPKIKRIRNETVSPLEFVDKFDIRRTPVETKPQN

Results are given in words; binding and its absence hold for the method and conditions named. Binding seen in cells or lysates may run through a third protein. Some results given as binding are weak or reduced against the parent protein; the word gives no strength. Where a sequence is shown, tags or fusion partners need not be part of it.

Assay [1] deals with AtSYP32 (BiFC fusion) (Arabidopsis thaliana) (UniProt Q9LK09). As to the kind of experiment: split reporter.
The target of assay [2] is LUC^N-AtSYP32 (Arabidopsis thaliana) (UniProt Q9LK09). Kind of assay: split reporter.

As for “BET12 (BiFC fusion) (from UniProt Q94CG2 1-130)”, the binding entry in assay [1] is recorded as “binds”.
On the same count and under the same terms, the same measure for “XXT5 (BiFC fusion) (from UniProt Q9CA75 1-457) (enzyme)”: “binds”.

B1: SEC22 (BiFC fusion) (protein, UniProt Q94AU2 1-218)
chain: MVKMTLIARVTDGLPLAEGLDDGRDLPDSDMYKQQVKALFKNLSRGQNDASRMSVETGPYVFHYIIEGRVCYLTMCDRSYPKKLAFQYLEDLKNEFERVNGPNIETAARPYAFIKFDTFIQKTKKLYQDTRTQRNIAKLNDELYEVHQIMTRNVQEVLGVGEKLDQVSEMSSRLTSESRIYADKAKDLNRQALIRKWAPVAIVFGVVFLLFWVKNKLW
In the case of B1, the binding entry in assay [1] is reported as “binds”.

B2: UDP-glucose dehydrogenase2 (UGD2), SLCA fusion (enzyme, UniProt Q9LIA8 1-480)
chain: MVKICCIGAGYVGGPTMAVIALKCPDVEVAVVDISVPRINAWNSDTLPIYEPGLDDVVKQCRGKNLFFSTDVEKHVREADIVFVSVNTPTKTRGLGAGKAADLTYWESAARMIADVSVSDKIVVEKSTVPVKTAEAIEKILTHNSKGIKFQILSNPEFLAEGTAIKDLFNPDRVLIGGRETPEGFKAVQTLKNVYAHWVPEGQIITTNLWSAELSKLAANAFLAQRISSVNAMSALCEATGADVTQVSYAVGTDSRIGPKFLNSSVGFGGSCFQKDILNLVYICECNGLPEVAEYWKQVIKINDYQKSRFVNRVVSSMFNSVSNKKIAVLGFAFKKDTGDTRETPAIDVCKGLLEDKARLSIYDPQVTEDQIQRDLSMNKFDWDHPLHLQPMSPTTVKQVTVTWDAYEATKDAHGICIMTEWDEFKNLDFQKIFDNMQKPAFVFDGRNIMNLQKLREIGFIVYSIGKPLDDWLKDMPAVA
As to B2, in assay [2], the binding result is on record as “no binding”.

B3: LUC^C-SEC31B (protein, UniProt Q8L611 1-1104)
chain: MACIKGVGRSASVALAPDAPYMAAGTMAGAVDLSFSSSANLEIFKLDFQSDDRDLPLVGEIPSSERFNRLAWGRNGSGSEEFALGLIAGGLVDGNIDLWNPLSLIGSQPSENALVGHLSVHKGPVRGLEFNAISSNLLASGADDGEICIWDLLKPSEPSHFPLLKGSGSATQGEISFISWNRKVQQILASTSYNGTTVIWDLRKQKPIINFADSVRRRCSVLQWNPNVTTQIMVASDDDSSPTLKLWDMRNIMSPVREFTGHQRGVIAMEWCPSDSSYLLTCAKDNRTICWDTNTAEIVAELPAGNNWNFDVHWYPKIPGVISASSFDGKIGIYNIEGCSRYGVEENNFGTAPLKAPKWYKRPVGASFGFGGKLVSCHARAPAKGTSSILSEVFLHSLVTEQSLVSRTSEFEAAIENGDMTSLRGLCEKKSEETESEEEKETWGLLKIMFEEEGTSRTKLISHLGFTLPVAEKDQAVDGLSSDLNGIRLEDTAADALDLDDSNEAAAFAMDNGEDFFNNFPAKPDTPVSTSAKDFMPSDTDFSTKGEETQEMQEEEEESSDPVFDNAIQRALIVGDYKEAVDQCITANKMADALVIAHVGGTALWESTREKYLKTSSAPYMKVVSAMVNNDLRSLIYTRSHKFWKETLALLCTFAQGEQWTTLCDALASKLMAAGNTLAAVLCYICAGNVDRTVEIWSRSLANERDGRSYAELLQDLMEKTLVLALATGNKKFSASLCKLFESYAEILASQGLLTTAMKYLKVLDSGGLSPELSILRDRISLSAEPETNTTASGNTQPQSTMPYNQEPTQAQPNVLANPYDNQYQQPYTDSYYVPQVSHPPMQQPTMFMPHQAQPAPQPSFTPAPTSNAQPSMRTTFVPSTPPALKNADQYQQPTMSSHSFTGPSNNAYPVPPGPGQYAPSGPSQLGQYPNPKMPQVVAPAAGPIGFTPMATPGVAPRSVQPASPPTQQAAAQAAPAPATPPPTVQTADTSNVPAHQKPVIATLTRLFNETSEALGGARANTTKKREIEDNSRKLGALFVKLNSGDISKNAADKLAQLCQALDNNDFSTALQIQVLLTTSEWDECNFWLATLKRMMVKARQNVR
As to B3, in assay [2], the binding entry was “binds”.

B4: SEC31B (BiFC fusion) (protein, UniProt Q8L611 1-1104)
chain: MACIKGVGRSASVALAPDAPYMAAGTMAGAVDLSFSSSANLEIFKLDFQSDDRDLPLVGEIPSSERFNRLAWGRNGSGSEEFALGLIAGGLVDGNIDLWNPLSLIGSQPSENALVGHLSVHKGPVRGLEFNAISSNLLASGADDGEICIWDLLKPSEPSHFPLLKGSGSATQGEISFISWNRKVQQILASTSYNGTTVIWDLRKQKPIINFADSVRRRCSVLQWNPNVTTQIMVASDDDSSPTLKLWDMRNIMSPVREFTGHQRGVIAMEWCPSDSSYLLTCAKDNRTICWDTNTAEIVAELPAGNNWNFDVHWYPKIPGVISASSFDGKIGIYNIEGCSRYGVEENNFGTAPLKAPKWYKRPVGASFGFGGKLVSCHARAPAKGTSSILSEVFLHSLVTEQSLVSRTSEFEAAIENGDMTSLRGLCEKKSEETESEEEKETWGLLKIMFEEEGTSRTKLISHLGFTLPVAEKDQAVDGLSSDLNGIRLEDTAADALDLDDSNEAAAFAMDNGEDFFNNFPAKPDTPVSTSAKDFMPSDTDFSTKGEETQEMQEEEEESSDPVFDNAIQRALIVGDYKEAVDQCITANKMADALVIAHVGGTALWESTREKYLKTSSAPYMKVVSAMVNNDLRSLIYTRSHKFWKETLALLCTFAQGEQWTTLCDALASKLMAAGNTLAAVLCYICAGNVDRTVEIWSRSLANERDGRSYAELLQDLMEKTLVLALATGNKKFSASLCKLFESYAEILASQGLLTTAMKYLKVLDSGGLSPELSILRDRISLSAEPETNTTASGNTQPQSTMPYNQEPTQAQPNVLANPYDNQYQQPYTDSYYVPQVSHPPMQQPTMFMPHQAQPAPQPSFTPAPTSNAQPSMRTTFVPSTPPALKNADQYQQPTMSSHSFTGPSNNAYPVPPGPGQYAPSGPSQLGQYPNPKMPQVVAPAAGPIGFTPMATPGVAPRSVQPASPPTQQAAAQAAPAPATPPPTVQTADTSNVPAHQKPVIATLTRLFNETSEALGGARANTTKKREIEDNSRKLGALFVKLNSGDISKNAADKLAQLCQALDNNDFSTALQIQVLLTTSEWDECNFWLATLKRMMVKARQNVR
Consider B4, for which the binding result in assay [1] is on record as “binds”.
